From patent publication US20160032001A1 (APEXIGEN, published 2016)
These are yes or no findings as the source states them, for the method shown. Some entries that bind do so weakly or less than the wild type.

T1: RANKL expressed on the surface of 293 cells (UniProt O14788)
T1 sequence (looked up): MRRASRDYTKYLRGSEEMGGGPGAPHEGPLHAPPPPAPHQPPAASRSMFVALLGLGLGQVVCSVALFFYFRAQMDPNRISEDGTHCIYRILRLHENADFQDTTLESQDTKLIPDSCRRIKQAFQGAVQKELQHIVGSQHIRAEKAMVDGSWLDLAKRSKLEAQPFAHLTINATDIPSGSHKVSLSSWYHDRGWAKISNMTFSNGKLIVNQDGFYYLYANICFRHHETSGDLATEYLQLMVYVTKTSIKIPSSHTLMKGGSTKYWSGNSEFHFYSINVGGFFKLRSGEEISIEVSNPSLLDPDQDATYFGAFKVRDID

T2: human RANKL protein (human, UniProt O14788 140-317, limits assumed)
T2 sequence (looked up): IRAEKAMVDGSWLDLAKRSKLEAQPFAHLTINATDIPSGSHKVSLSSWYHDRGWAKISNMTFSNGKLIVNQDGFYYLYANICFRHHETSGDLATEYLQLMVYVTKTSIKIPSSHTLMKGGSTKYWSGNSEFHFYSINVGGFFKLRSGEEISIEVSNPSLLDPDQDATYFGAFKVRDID

B1: clone 23 rabbit anti-RANKL antibody (antibody, V domains shown)
VH: QEQLKESGGGLVTPGGTLTLTCTASGFSLSSDGMSWVRQAPGKGLEWIGYIYSGSSPYYANWAKGRFTISKTSSTTVDLKMTSLTTEDTATYFCARHGSGGGWYLDIWGPGTLVTVSS
VL: AYDMIQTPASVEVAVGGTVTINCQASQTIGTNLAWYQQKPGQRPKLLIYAASTLPSGVSSRFKGSGSGTQFTLTISDVECSDAATYYCQQAYSVGNVDNAFGGGTEVVVK
notes: also called RabMAb 23; parent 23 rabbit antibody
B2: clone 408 rabbit anti-RANKL antibody (antibody, V domains shown)
VH: QSVEESGGRLVTPGTPLTLTCTVSGFSLSTDVVSWVRQAPGKGLEWIGYTWNGGATFYASWAKGRFTFSKTSTTVDLKITSPTTEDTATYFCARGYNGMDPWGPGTLVTVSS
VL: DMTQTPASVEAAVGGAVTIKCQASQNIGSNLAWYHQKPGQPPKLLISKASTLASGVPSRFKGSGSGTEFTLAISDLECADAATYYCQQGYTTKNVVNPFGGGTEVVVK
B3: clone EBI-51-22 rabbit anti-RANKL antibody (antibody, V domains shown)
VH: QSVEESGGRLVTPGTLLTLTCTVSGFSLSTDVLSWVRQAPGKGLEWIGYTWSGGSTYYASWAKGRFTISKTSSTTVDLKITSPTTEDTATYFCARGFNPFDPWGPGTLVTVSS
VL: DMTQTPASVSDPVGGTVTIKCQASQNIGSNLAWYQQKPGQRPKLLIYRASTLASGVSSRFKGSGSGTQFTLTISDLECADAATYYCQQGYSAGNVDNNAFGGGTEVVVK
B4: clone 379 rabbit anti-RANKL antibody (antibody, V domains shown)
VH: QEQLKESGGGLVTPGGTLTLTCTASRFSLINIGMSWVRQAPGRGLEWIGYIYSGGSPYYANWAKGRFTISRTSTTVDLKMTSLTTEDTATYFCARHASDGGWYLDIWGPGTLVTVSL
VL: DMIQTPASVEVAVGGTVTINCQASQSIGSNLAWYQQKPGQPPKLLIYLASTLPSGVPSRFKGSGSGTQFTFTISDVECTDAATYYCQQAYTASNVDNAFGGGTEVVVK
B5: clone 383 rabbit anti-RANKL antibody (antibody, V domains shown)
VH: QSLEESGGDLVKPGASLTLTCTASGFSFSRYVCWVRQAPGKGLEWIGCIAAGSSGYTYYASWAKGRLTISKTSSTTLTLQMTSLTVADTATYFCARSGDSYVGYFNLWGPGTLVTVSS
VL: IVMTQTPASVEAAVGGTVTIKCQASQNIYNYLAWYQQQPGQPPKLLIYSASNLASGVSSRFKGSGSGTEFTLTISDLECGDAATYYCQSYYDSSRISYGSAFGGGTEVVVK
B6: clone 388 rabbit anti-RANKL antibody (antibody, V domains shown)
VH: QSVEESGGRLVTPGTPLTLTCTVSGFSLSSGVVSWVRQAPGKGLEWIGYAWSGGPTYYANWAKGRFTISKSSTTVDLKITSPTTADTATYFCARGYNGMDPWGPGTLVTVSS
VL: DMTQTPASVEVAVGGTVTIKCQASQNIGSNLAWYQQKPGQPPKLLIYKASTLASGVPSRFRGSGSGTEFTLAISDLECADAATYYCQQGYTTKDVVNPFGGGTEVVVK
B7: clone 130 rabbit anti-RANKL antibody (antibody, V domains shown)
VH: QSVEESGGRLVTPGTPLTLTCTVSGFSLSSGVVSWVRQAPGKGLEWIGYAWSGGATYYASWAKGRFTISKSSTTVDLKITSPTTADTATYFCARGYNGMDPWGPGTLVTVSS
VL: DMTQTPASVEVAVGGTVTIKCQASQNIGSNLAWYQQKPGQPPKLLIYKASTLASGVPSRFRGSGSGTEFTLAISDLECADAATYYCQQGYTTKDLVNPFGGGTEVVVK
B8: clone 411 rabbit anti-RANKL antibody (antibody, V domains shown)
VH: QSVEESGGRLVTPGTPLTLTCTVSGFSLSSGVVSWVRQAPGKGLEWIGYAWSGGPTYYANWAKGRFTISKSSTTVDLKITSPTTADTATYFCARGYNGMDPWGPGTLVTVSS
VL: DMTQTPASVEVAVGGTVTIKCQASQNIGSNLAWYQQKPGQPPKLLIYKASTLASGVPSRFRGSGSGTEFTLAISDLECADAATYYCQQGYTTKDVVNPFGGGTEVVVK
B9: clone 420 rabbit anti-RANKL antibody (antibody, V domains shown)
VH: QEQLKESGGGLVTPGGILTLTCTASGFSLRSNAMSWVRQAPGKGLEWIGYIYPGGAPHYASWAKGRFTISRNSTTVDLKMTSLTTEDTATYFCARHVSGGGWYLDIWGPGTLVTVSL
VL: DMIQTPASVEVGVGGTVTINCQASQNIGSNLAWYQQKPGQPPKFLIYGASTLASGVSSRFKGSGSGTRFTFTISDVECTDAATYYCQQAYSVGNVDNAFGGGTEVVVK
B10: clone 447 rabbit anti-RANKL antibody (antibody, V domains shown)
VH: QEQLKESGGGLVTPGGILTLTCTASGFSLRSNAMSWVRQAPGKGLEWIGYIYPGGAPHYASWAKGRFTISRNSTTVDLKMTSLTTEDTATYFCARHVSGGGWYLDIWGPGTLVTVSL
VL: DMIQTPASVEVGVGGTVTINCQASQNIGSNLAWYQQKPGQPPKFLIYGASTLASGVSSRFKGSGSGTRFTFTISDVECTDAATYYCQQAYSVGNVDNAFGGGTEVVVK
B11: clone 476 rabbit anti-RANKL antibody (antibody, V domains shown)
VH: QSLEESGGGLVQPEGSPTLTCTAYLIDFSRYGYMCWVRQAPGKGLEWIGCIHAGRSGRTYYANWAKGRFTISKTSSTTVTLQMTSLTAADTATYFCAKSGDSYVGYFALWGPGTLVTVSS
VL: DIVMTQTPASVEAAVGGTVTIKCQASENIYNYLSWYQQKPGQPPKLLIYEASKLASGVSSRFKGSGSGTEFTLTISDLECADAATYYCQSYYDVTSHSYDNPFGGGTEVVVS
B12: clone 565 rabbit anti-RANKL antibody (antibody, V domains shown)
VH: QEDLKESGGGLITPGGTLTLTCTGSGFSLSSDGMSWVRQAPGKGLEWIGYIYSGSSPYYANWAKGRFTISKTSSTTVDLKMTSLTTEDTATYFCARHLSGGGWYLDIWGPGTLVTVSL
VL: DMIQTPASVSEPVGGTVTINCQASQNIGSNLAWYQQKPGQPSKLLIYKASTLASGVPSRFKGSGSGTDFTLTISDLECADAATYYCQQAYTISNVDNAFGGGTEVVVK
B13: clone EBI-51-1 rabbit anti-RANKL antibody (antibody, V domains shown)
VH: QEQLEESGGGLVKPEGSLTLTCTASGFDLSTYYYMCWVRQAPGKGLEWIACIYTGRASTYYATWAKGRFTISKTSSTTVTLQMTSLTAADTATFFCASKAGDIWYYGMDLWGPGTLVTVSS
VL: DMTQTPASVSEPVGGTVTIKCQASQNIGSNLAWYQQKPGQRPKLLIYRASTLASGVSSRFKGSGSGTQFTLTISDLECADAATYYCQQGYSAGNVDNNTFGGGTEVVVK
B14: clone EBI-51-2 rabbit anti-RANKL antibody (antibody, V domains shown)
VH: QSLEESGGRLVTPGTPLTLTCTASGFTISTDVISWVRQAPGKGLEWIGYTWSGGSTYYANWAKGRFTLSKTSSTTVDLKITSPTIEDTATYFCARGFNPFDPWGPGTLVTVSS
VL: DMIQTPASVSEPVGGTVTIVCQASQNIGSNFAWYQQKPGQPPKLLIYRASTLASGVSSRFKGSGFGTQFTLTISDLECADAATYYCQQGYSAGNVDNNFGGGTEVVVK
B15: clone EBI-51-4 rabbit anti-RANKL antibody (antibody, V domains shown)
VH: QSVEESGGRLVKPGESLTLTCTASGFSLSSDVISWVRQAPGKGLEWIGYGWSGGPTYYANWAKGRFTISKTSSTTVDLKITSPTTEDTATYFCARGFNPFDPWGPGTLVTVSS
VL: DMTQTPASVSEPVGGTVTIKCQASQNIGSNLAWYQQKPGQRPKLLIYRASTLASGVSSRFKGSGSGTQFTLTISDLECADAATYYCQQGYSAGNVDNSFGGGTEVVVK
B16: clone EBI-51-23 rabbit anti-RANKL antibody (antibody, V domains shown)
VH: QSVKESEGGLFKPTDTLTLTCTVSGFSLSIYEISWVRQAPGKELEWIGYIGVGGVTYYANWAKSRSTITRNTNQKMVALKMTSLTAADTATYFCARGYNPFDLWGPGTLVTVSS
VL: DMTQTPASVEVAVGGTVTINCQASQNIGSNLAWYQQKPGQPPKLLIYKASTLASGVPSRLKGSGSGTEFTLTISGVQCDDAATYYCQQGYTTGNVDNPFGGGTEVVVK
B17: clone 68 rabbit anti-RANKL antibody (antibody, V domains shown)
VH: QEQLKESGGGLVKPDESLTLTCTASGFSLSSNGMSWARQAPGKGLEWIGYIYAGSSPYYANWAKGRFTISKTSSTTVDLKVTSLTTEDTATYFCARHASGGGWYLAIWGPGTLVTVSL
VL: DMIQTPASVEVAVGGTVTIGCQASQSIGSNLGWYQQKPGQPPKLLIYSASTLASGVSSRFKGSGSGTEFTLTISDVECDDAATYYCQQAYSVSNVDNAFGGGTEVVVK
B18: clone 147 rabbit anti-RANKL antibody (antibody, V domains shown)
VH: QSVEESGGRLVTPGTPQTLTCTVSGFSLSTDVVSWVRQAPGKGLEWIGYTWNGGATYYASWAKGRFTFSKTSTTVDLKITSPTTEDTATYFCARGYNGMDPWGPGTLVTVSS
VL: DMTQTPASVEVAVGGTVTIKCQASQNIGSNLAWYQQKPGQPPKLLISKASTLASGVPSRFKGSGSGTEFTLAISDLECADAATYYCQQGYTTKNVVNPFGGGTEVVVK
B19: clone 174 rabbit anti-RANKL antibody (antibody, V domains shown)
VH: QEQLQESGGGLITPGGTLTLTCTASGFSFNRNALSWVRQAPGKGLEWIGYIYSGGSPYYANWAKGRFNVSRTSTTVDLRMTSLTTEDTATYFCARHVSGGGWYLDIWGPGTLVTVSL
VL: DMIQTPASVEVAVGGTVTINCQASQNIGSNLAWYQQKPGQPPKLLIYGTSTLASGVSSRFKGSGFGTQFTFTISDVECTDAATYYCQQAYSISNVDNAFGGGTEVVVK
B20: humanized clone 23 antibody, VH 23HZD-1 HC with humanized VL 23 Vk (antibody, V domains shown)
VH: EVQLVESGGGLVQPGGSLRLSCAASGFSLSSDGMSWVRQAPGKGLEWIGYIYSGSSPYYANWAKGRFTISKDSSKNTVYLQMNSLRAEDTAVYFCARHGSGGGWYLDIWGPGTLVTVSS
VL: DIQMTQSPSSLSASVGDRVTINCQASQTIGTNLAWYQQKPGKRPKLLIYAASTLPSGVPSRFSGSGSGTDFTLTISSLQPEDFATYYCQQAYSVGNVDNAFGGGTKVEIK
notes: also called humanized 23 Vk; 23LHZD

Target: T1, RANKL expressed on the surface of 293 cells
Assay: flow cytometry, RANKL-transfected 293 cells

binding, binds:
B1
B2
B3
B4
B5
B6
B7
B8
B9
B10
B11
B12
B13
B14
B15
B16
B17
B18
B19

Target: T2, human RANKL protein
Assay: surface plasmon resonance

binding, binds:
B1
B2
B3

Target: T1, RANKL expressed on the surface of 293 cells
Assay: binding to RANKL-transfected 293 cells (FIG. 6)

binding, binds:
B20
